Results as given in article PMC7652414.
These are yes or no findings as the source states them, for the method shown. Binding seen in cells or lysates may run through a third protein. Some entries that bind do so weakly or less than the wild type. Tags and fused reporters may be left off the sequences shown.

Biological target: T1, FLA10-MBP (Chlamydomonas reinhardtii) (UniProt P46869)
T1 sequence: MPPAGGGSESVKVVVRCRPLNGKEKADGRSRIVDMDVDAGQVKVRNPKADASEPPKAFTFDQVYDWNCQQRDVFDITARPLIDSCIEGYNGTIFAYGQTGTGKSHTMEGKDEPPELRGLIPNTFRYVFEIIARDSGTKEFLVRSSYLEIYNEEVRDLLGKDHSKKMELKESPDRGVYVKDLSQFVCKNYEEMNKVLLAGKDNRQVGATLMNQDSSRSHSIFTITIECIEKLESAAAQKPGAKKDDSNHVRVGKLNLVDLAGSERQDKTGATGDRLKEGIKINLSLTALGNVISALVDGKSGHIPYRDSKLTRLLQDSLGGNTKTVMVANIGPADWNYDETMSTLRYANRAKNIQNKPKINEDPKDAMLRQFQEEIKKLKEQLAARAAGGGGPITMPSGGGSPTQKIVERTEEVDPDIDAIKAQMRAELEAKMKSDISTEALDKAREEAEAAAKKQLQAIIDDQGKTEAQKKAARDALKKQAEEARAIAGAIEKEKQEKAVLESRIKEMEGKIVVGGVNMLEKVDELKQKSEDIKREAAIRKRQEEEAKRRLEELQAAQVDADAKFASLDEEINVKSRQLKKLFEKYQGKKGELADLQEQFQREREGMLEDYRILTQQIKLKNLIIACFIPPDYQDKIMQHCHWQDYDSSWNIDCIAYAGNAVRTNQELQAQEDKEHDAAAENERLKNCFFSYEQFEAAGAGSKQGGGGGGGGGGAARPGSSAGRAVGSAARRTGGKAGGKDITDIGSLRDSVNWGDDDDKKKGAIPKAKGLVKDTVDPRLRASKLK
Assay: pull-down; co-purification of FLA10-MBP/FLA8-RFP from Sf9 lysate on an MBP (amylose) column; Coomassie-stained SDS-PAGE

binding: binds
B1: FLA8-RFP (protein, UniProt A7LGV1 1-768)
chain: MASGGECVKVAVRCRPLNGKEKGDNRATIVEVDNKTGQVTLNNPKGDEPPKTFTFDNAFDWNVTQRDVYDVVARPIVNSVMDGYNGTIFAYGQTGTGKTHTMEGFPTPELQGIIPNCFDHVFETVNSSTGKQWMVRASYLEIYNEEVRDLLSKDPKNKLELKEHKDSGVYVKGLNAFVVKGVPELKNVLEVGKKNRSVGATLMNQDSSRSHSIFTITIETIEQTQAQPEGHIRVGKLNLVDLAGSERQSKTGATGDRLKEATKINLSLSALGNVISALVDGKSGHVPYRDSKLTRLLQDSLGGNTKTIMCANMGPADWNYDETLSTLRYANRAKNIKNKPKINEDPKDAMLREFQDEIARLKAALEAEGGALPEGFATGPGGEIIVEKVVQVPKALDASFLEQMRKDMEEQMKKELASQQAAALNDEQLQKVKEEAAAKAKAEAARLEEEKKKAEEEAARMQRKQQKIKAEMDKKSLDAEQIRAEKEALAKKLKAMESKILKGDQAGGLAEVTKKKEEELKRKEQELERRRKEEEEQRKKIQVMEEQQLAMEDKYKDKADEADQKTKKLKKLWKKFQEVNAEVEDMYKEFQREKEDLLESIRMLQDQMQLKDMVIEAFIPPEEVQKVMKRAHWDDEREVWVLERLSDIGKRETAQGASRRPVSASGQRRPTSDFAKLANAMGDMNPRFKSENILNLELDLPERTTYDYEGPGVDPRVQAAINAAFAEDGELIFVGSEQNVHLGDASAAAARPDSAKKRPASARKGTKK
